{"source": "patent US20200397795A1", "about": "“PROPHYLACTIC TREATMENT OF VENOUS THROMBOEMBOLISM” (JANSSEN PHARMACEUTICALS, INC., priority 2019, published 2020)", "test_system": "symptomatic VTE and VTE-related death in high-risk, medically ill subjects", "experiment": "MARINER (Study 2): efficacy of rivaroxaban vs placebo for 45 days post-hospital discharge", "assay_type": "in vivo, human", "conditions": "Up-to-Day 45; ITT", "text": "The primary objective of Study 2 (MARINER) was to assess the efficacy and safety of rivaroxaban, compared with placebo in the prevention of symptomatic venous thromboembolism (VTE; lower extremity deep vein thrombosis [DVT] and non-fatal pulmonary embolism [PE]) and VTE-related death (death due to PE or death in which PE could not be ruled out as the cause) post-hospital discharge in high-risk, medically ill subjects.\nThis was a multicenter, prospective, randomized, double-blind, placebo-controlled, event-driven study conducted in multiple geographic regions (North America, South America, Eastern Europe, Western Europe, and Other locations) that evaluated rivaroxaban, compared with placebo, in the prevention of symptomatic VTE events and VTE-related deaths for a period of 45 days post-hospital discharge in high-risk, medically ill subjects. The study consisted of a screening phase, a 45-day double-blind treatment phase, and a 30-day safety follow-up period (which was also the end of study [EOS]). The total duration for a subject who completed the study (including the safety follow-up period) after randomization was 75 (±5) days.\nThe index hospitalization was at least 3 and no more than 10 consecutive days in duration. […] Subjects received thromboprophylaxis during the index hospitalization with low molecular weight heparin (LMWH) or unfractionated heparin (UFH).\nRandomization occurred on the same day or the day after the subject left the hospital, and occurred at the hospital, clinic, or other discharge destination. Eligible subjects were to be randomly assigned (1:1) by strata (by creatinine clearance [CrCl] level [≥30-<50 mL/min versus ≥50 mL/min] and by country) to receive either rivaroxaban or placebo. Subjects with a baseline CrCl of ≥50 mL/min were to receive rivaroxaban 10 mg once daily (QD) or placebo QD. […] The subject was assessed 30 days later for safety follow-up. […]\nThe primary and secondary efficacy outcomes were analyzed based on the time from randomization to the first occurrence in the ITT analysis set and Up-to-Day 45 analysis phase. […]", "data": [{"smiles": "O=C(NC[C@H]1CN(c2ccc(N3CCOCC3=O)cc2)C(=O)O1)c1ccc(Cl)s1", "note": "[Rivaroxaban, 5-chloro-N-({(5S)-2-oxo-3-[4-(3-oxo-4-morpholinyl)phenyl]-1,3,oxazolidin-5-yl}methyl)-2-thiophenecarboxamide]", "values": [{"measurement": "Mean total duration of all re-hospitalization", "result": 10.8, "unit": "days"}, {"measurement": "Re-hospitalized subjects with a total duration of 3 days in the hospital", "result": 91.3, "unit": "%"}, {"measurement": "Subjects with at least 1 re-hospitalization", "result": 6.3, "unit": "%"}]}]}
